This note sets out measurements from article doi:10.1101/2021.09.16.460643 (bioRxiv, 2021).

In the assay the target is cytoplasmic part of ETR1 (ETR1 without transmembrane domain, ΔTM-ETR1) with C-terminal GFP (Arabidopsis thaliana). The assay can be described thus: FRET or BRET. (In general: Bioluminescence resonance energy transfer reports proximity on the nanometre scale.)

No constants are given. Whether binding was seen depends on the method and setting. Binding seen in cells or lysates may run through a third protein. Binding calls can cover weak binding; strength is not graded here. Sequences can lack the tags named with a protein.

B1: full length AHK5 tagged N-terminally with mRFP1 (protein, UniProt Q3S4A7 1-922)
chain: MVCEMETDQIEEMDVEVLSSMWPEDVGTEADKQFNVEKPAGDLDTLKEVTIETRTIADMTRLPNLLNSTHQGSSQLTNLVKQWEYMQDNAVRLLKEELKNLDRQREEAEAKELKIIEEYKFESNEPENVPVLDETSDLFRRFRQKKRDALVDSKKIEIYEEFDTVAYWKQKALSLEKMLEASTERERRLMEKLSESLKTMESQSAPVQELTQNLKRAEGFLHFILQNAPIVMGHQDKDLRYLFIYNKYPSLREQDILGKTDVEIFHGGGVKESEDFKREVLEKGKASKREITFTTDLFGSKTFLIYVEPVYNKAGEKIGINYMGMEVTDQVVKREKMAKLREDNAVRKAMESELNKTIHITEETMRAKQMLATMSHEIRSPLSGVVGMAEILSTTKLDKEQRQLLNVMISSGDLVLQLINDILDLSKVESGVMRLEATKFRPREVVKHVLQTAAASLKKSLTLEGNIADDVPIEVVGDVLRIRQILTNLISNAIKFTHEGNVGIKLQVISEPSFVRDNALNADTEEHEQNGLTETSVWICCDVWDTGIGIPENALPCLFKKYMQASADHARKYGGTGLGLAICKQLVELMGGQLTVTSRVSEGSTFTFILPYKVGRSDDYSDDQDEFSDMADQQSEPDDTAEGYFQFKPLLGSIYSNGGPGISNDFLPHKVMLTSPIKLINGFVADPSNNTGQSEMLQLENGGYMDESKLETSSGHCPESAHQYENGNGRCFSKESESCSSSQASSEGGTLEMESELTVSSHREEEKAETEVKETSKPKILLVEDNKINIMVAKSMMKQLGHTMDIANNGVEAITAINSSSYDLVLMDVCMPVLDGLKATRLIRSYEETGNWNAAIEAGVDISTSENEQVCMRPTNRLPIIAMTANTLAESSEECYANGMDSFISKPVTLQKLRECLQQYLH
For the molecule B1, the binding result is listed as “binds”.

B2: full length AHK5 tagged C-terminally with mRFP1 (protein, UniProt Q3S4A7 1-922)
chain: MVCEMETDQIEEMDVEVLSSMWPEDVGTEADKQFNVEKPAGDLDTLKEVTIETRTIADMTRLPNLLNSTHQGSSQLTNLVKQWEYMQDNAVRLLKEELKNLDRQREEAEAKELKIIEEYKFESNEPENVPVLDETSDLFRRFRQKKRDALVDSKKIEIYEEFDTVAYWKQKALSLEKMLEASTERERRLMEKLSESLKTMESQSAPVQELTQNLKRAEGFLHFILQNAPIVMGHQDKDLRYLFIYNKYPSLREQDILGKTDVEIFHGGGVKESEDFKREVLEKGKASKREITFTTDLFGSKTFLIYVEPVYNKAGEKIGINYMGMEVTDQVVKREKMAKLREDNAVRKAMESELNKTIHITEETMRAKQMLATMSHEIRSPLSGVVGMAEILSTTKLDKEQRQLLNVMISSGDLVLQLINDILDLSKVESGVMRLEATKFRPREVVKHVLQTAAASLKKSLTLEGNIADDVPIEVVGDVLRIRQILTNLISNAIKFTHEGNVGIKLQVISEPSFVRDNALNADTEEHEQNGLTETSVWICCDVWDTGIGIPENALPCLFKKYMQASADHARKYGGTGLGLAICKQLVELMGGQLTVTSRVSEGSTFTFILPYKVGRSDDYSDDQDEFSDMADQQSEPDDTAEGYFQFKPLLGSIYSNGGPGISNDFLPHKVMLTSPIKLINGFVADPSNNTGQSEMLQLENGGYMDESKLETSSGHCPESAHQYENGNGRCFSKESESCSSSQASSEGGTLEMESELTVSSHREEEKAETEVKETSKPKILLVEDNKINIMVAKSMMKQLGHTMDIANNGVEAITAINSSSYDLVLMDVCMPVLDGLKATRLIRSYEETGNWNAAIEAGVDISTSENEQVCMRPTNRLPIIAMTANTLAESSEECYANGMDSFISKPVTLQKLRECLQQYLH
For the molecule B2, the binding entry is “binds”.
